According to PMC5846801:
These are yes or no findings as the source states them, for the method shown. Binding calls can cover weak binding; strength is not graded here.

Sequences of proteins named here, by UniProt entry; tags and fusion partners are left off. A change or cut given only in a name is not applied to a line headed by its entry.
UniProt P15056: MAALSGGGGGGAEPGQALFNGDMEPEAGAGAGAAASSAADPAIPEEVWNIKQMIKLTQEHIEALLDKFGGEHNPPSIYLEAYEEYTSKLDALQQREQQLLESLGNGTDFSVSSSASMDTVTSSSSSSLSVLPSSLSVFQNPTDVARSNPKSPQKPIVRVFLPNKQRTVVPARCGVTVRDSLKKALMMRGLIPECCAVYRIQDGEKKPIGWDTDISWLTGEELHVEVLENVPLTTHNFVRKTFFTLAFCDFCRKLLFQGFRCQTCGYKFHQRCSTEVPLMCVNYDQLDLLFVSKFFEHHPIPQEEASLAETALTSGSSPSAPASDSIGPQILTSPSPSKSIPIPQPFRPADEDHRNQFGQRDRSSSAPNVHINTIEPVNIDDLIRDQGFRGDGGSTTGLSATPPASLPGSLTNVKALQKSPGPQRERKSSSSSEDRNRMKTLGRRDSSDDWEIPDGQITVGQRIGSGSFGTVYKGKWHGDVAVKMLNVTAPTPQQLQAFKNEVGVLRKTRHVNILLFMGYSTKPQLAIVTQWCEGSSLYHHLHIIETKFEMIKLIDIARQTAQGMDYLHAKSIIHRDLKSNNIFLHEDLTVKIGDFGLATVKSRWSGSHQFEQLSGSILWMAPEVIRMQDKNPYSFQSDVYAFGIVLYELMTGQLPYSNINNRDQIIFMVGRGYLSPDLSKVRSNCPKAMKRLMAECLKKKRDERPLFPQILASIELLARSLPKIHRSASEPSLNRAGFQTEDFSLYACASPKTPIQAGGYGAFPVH

Experiments:
[1] = target: T1, Cdc37 phosphorylated on serine 13 (human) (UniProt Q16543); assay: pull-down; 50 μg His-tagged Cdc37 immobilised on Talon resin; kinase added in 25 mM Tris.Cl, 150 mM NaCl, 1 mM TCEP, 0.1% Triton-X-100, pH 8.0, 4 °C, 1 h; Coomassie; both purified
T1 sequence (chain, phosphoserine at 13): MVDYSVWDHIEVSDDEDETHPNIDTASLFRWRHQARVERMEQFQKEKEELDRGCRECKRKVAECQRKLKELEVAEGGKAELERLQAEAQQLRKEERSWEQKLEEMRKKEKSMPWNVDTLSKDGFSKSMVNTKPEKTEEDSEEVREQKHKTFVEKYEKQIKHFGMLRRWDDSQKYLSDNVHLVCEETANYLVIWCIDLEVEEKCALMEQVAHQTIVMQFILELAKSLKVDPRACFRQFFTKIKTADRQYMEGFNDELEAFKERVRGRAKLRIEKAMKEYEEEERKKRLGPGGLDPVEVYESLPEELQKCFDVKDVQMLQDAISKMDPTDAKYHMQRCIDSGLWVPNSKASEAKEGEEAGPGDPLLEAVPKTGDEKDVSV

[2] = target: T1, Cdc37 phosphorylated on serine 13 (human); assay: HDX-MS; protein of interest 5 μM alone or with 7.5 μM partner, 30 min on ice, 25 mM Tris.Cl pH 8.0, 150 mM NaCl, 1 mM TCEP; exchange 0.3 s to 300 s; both purified
[3] = target: T1, Cdc37 phosphorylated on serine 13 (human); assay: SEC; ternary mixture: 15 μM kinase, 15 μM Cdc37, 30 μM Hsp90α (1:1:2), 15 min at 4 °C; Superdex 200 Increase, 25 mM Tris.Cl, 150 mM NaCl, 1 mM TCEP, pH 8.0, 4 °C; fractions by SDS-PAGE and ELISA; both purified

Measured: binding

sB-Raf^V600E kinase domain (from UniProt P15056) (domain or fragment)
binds: all assays above
